Drawing on publication PMC7661526, “Antibiofilm effects of N,O-acetals derived from 2-amino-1,4-naphthoquinone are associated with downregulation of important global virulence regulators in methicillin-resistant Staphylococcus aureus” (Scientific Reports, 2020), this text covers hemolysis for one compound.

The data set is described as follows: Hemocompatibility assay. The conditions noted are these: human, pH 7.4. The procedure:
Erythrocytes were collected from three human volunteers in a citrate tube and washed three times (3×) with PBS (pH 7.4). All derivatives were incubated with the PBS-erythrocyte suspension for 3 h at 37 °C. The hemolysis with the release of hemoglobin was quantified by the spectrophotometric reading of the supernatant at 545 nm. Hemolysis less than 10% represented hemocompatibility and non-toxicity against erythrocyte membranes. For the positive control, the human erythrocytes were lysed with 1% (v/v) Triton X-100. The negative control was performed with 1% (v/v) DMSO only (final concentration). […] All methods were carried out in accordance with relevant guidelines and regulations. In addition, informed consent was obtained from all volunteers. Three independent experiments were performed in triplicate.

For `O=C(O)c1cn(C2CC2)c2cc(N3CCNCC3)c(F)cc2c1=O` [Ciprofloxacin, ciprofloxacin, reference compound], the hemolysis at 3 h stood at 2.4 ± 0.6%.
